The campaign covered roughly 31,000 sequences. About 1,400 (4.5%) were called active.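 How the source made its calls: active means median seed-adjusted z-score above 1 or below -1; inactive means the rest.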 The list shows a part of the results.
Test: Novel Modifiers of Survival Motor Neuron (SMN) Protein: Gene Identification via Genome-wide siRNA Screen;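 further: luminescence tracks full-length SMN protein made from the SMN2 reporter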
Details: HEK293T SMN2-luciferase reporter, siRNA knockdown, 72 h; actives lie on both sides
Outline: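 Steps: spot 1 pmol siRNA, add Lipofectamine RNAiMax in serum-free DMEM, seed HEK293T SMN2–luciferase reporter cells; incubate 72 h at 37 °C; add ONE-Glo; normalize luminescence to control siRNA, log10, MAD. Candidates: |MAD| > 1.0.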

Row | Sequence | median seed-adjusted z-score
1 | ACAAUGUGGUCUACCGAUATT against SLCO3A1 | inactive: -0.0387
2 | CCAUCUCCCUUGUGCUGCATT against NINJ1 | inactive: -0.061
3 | GAACUUCACUUAGGACAUUTT against ATP6V1G1 | inactive: 0.311
4 | GAGACGGACUCAGACAGAATT against SIGLEC10 | inactive: 0.0542
5 | CAACAUAUGGUACCGAGUATT against MEF2C | inactive: -0.632
6 | UAGGGAAGCUGAAAGUGCATT against OXER1 | inactive: -0.471
7 | CUAUAGUGACCUAAACUAUTT against ACCN5 | inactive: 0.227
8 | GCACGAAUGUUGAGUUCGATT against PTPRD | inactive: 0.425
9 | CCAUGUCAGUGAUCAUUGUTT against CPNE1 | inactive: -0.0206
10 | GGAUAACACCUGCUUUUCATT against DUSP12 | inactive: -0.0123
11 | GUAUUUCUUGGAUUGGAUATT against SAR1B | inactive: 0.693
12 | CCAACACCGACUACUUAGATT against ATG4C | inactive: -0.414
13 | AGGUUUCAGUGGUUUGGAUTT against COL1A1 | inactive: 0
14 | GUAGCUGGGUGGAUCAGAATT against BPGM | inactive: 0.408
15 | GCAGUAUGCACUACUCUAATT against ATP11C | inactive: 0.102
16 | CGAUCUCCAGUUUAGCGGATT against ZFP106 | inactive: 0.286
17 | GAAAAUAUCCUGAUCAUAUTT against MC2R | inactive: 0
18 | CGCAAACAAGCACACCUUATT against ZNF501 | inactive: 0.19
19 | CCAGUGUAUGUUCUCCUUUTT against TRMT12 | inactive: 0.352
20 | CCUUACUUCUGACAACAGATT against IL23R | inactive: 0.512
21 | GCAAAGCUAUUGCAUUGAATT against HSDL2 | inactive: -0.0717
22 | CGAUAGAUAGUACAGGUAUTT against SP3 | inactive: -0.0943
23 | GCACCGUCUGAUCAUCAAATT against DNAJC11 | inactive: 0.148

Row | Sequence | median seed-adjusted z-score
24 | GGAUUAUAUUCAUCGAAUUTT against DDX5 | inactive: 0.891
25 | GGAACAACCAUACAGAUCATT against CDH20 | inactive: -0.397
26 | CAAAGAGACAAGUCCUAAATT against TTC15 | inactive: -0.235
27 | GGAUUGAAGAUACUACAAATT against THOC1 | active: -3.04
28 | GCCUUUGCUUGUGUAUUCATT against KRTAP5-7 | inactive: -0.279
29 | GUCGGGAUCUCAGAGGAAATT against PTRF | inactive: -0.0151
30 | GGCAUCAAGUUGACCAUCATT against LCK | inactive: 0.676
31 | GAACCAACUCGGAUAUUGUTT against MEF2A | inactive: -0.0658
32 | GGAUCAUGGUUUACGUUUUTT against SLC13A1 | inactive: 0.183
33 | AGCCUUCAAUAGAUCUUCATT against ZNF562 | inactive: -0.0954
34 | GAAUGUAUCAGCUACCGAUTT against HYAL4 | inactive: -0.236
35 | CAAUUGGAGGGUUAGAUGATT against KLHL8 | inactive: -0.835
36 | AGAGAGCCGUGGAAUUCCATT against RAB5C | inactive: -0.529
37 | GCAUACCUCAGUUCCAAGATT against CDY2A | inactive: 0.75
38 | CAUCAUCACCAAACUCAAATT against P2RX6 | inactive: -0.351
39 | CCCAGACGCAAGACAGUAATT against RBMX2 | inactive: -0.585
40 | CAUCAAGUCUGUGACCGAATT against FABP1 | inactive: -0.302
41 | CCUGCACUUUUGCACCCAATT against EDN3 | inactive: -0.427
42 | GCGAGAAGUUUGUUGCAGATT against RDH16 | inactive: 0.421
43 | CUGCUUACCUAUAUCCCAATT against SLC25A44 | inactive: -0.0685
44 | GUGACUAUGAGCUCAAAUATT against RAVER1 | inactive: -0.0873
45 | CGACGAAUCCAAACACGAATT against TLN2 | inactive: -0.0106
46 | GCAGAUUGAAUAUAGCUUUTT against MFHAS1 | inactive: -0.267

4 entries picked at random from the list so far, as already listed:
Row | Sequence | median seed-adjusted z-score
26 | CAAAGAGACAAGUCCUAAATT against TTC15 | inactive: -0.235
36 | AGAGAGCCGUGGAAUUCCATT against RAB5C | inactive: -0.529
44 | GUGACUAUGAGCUCAAAUATT against RAVER1 | inactive: -0.0873
24 | GGAUUAUAUUCAUCGAAUUTT against DDX5 | inactive: 0.891

Further records.

Row | Sequence | median seed-adjusted z-score
47 | AAAUCCUGCCUAAUGAUGATT against KLK1 | inactive: -0.216
48 | CAAGGAUUCUGUUUCAACATT against 11-Sep | inactive: -0.245
49 | GCGAAAACAUGGAUGUUCUTT against HERC2 | inactive: 0.98
50 | CUUUAAGACUCAUAACGAATT against GTF2E2 | active: -1.32
51 | GCAUUUCCCAAGACGUGGATT against ZFYVE28 | inactive: 0.0678
52 | ACAUCACGGAGAUUGCAGATT against TNNI3 | inactive: 0.516
53 | GAAUCUCAGAAUGCACAAATT against DDB2 | inactive: 0
54 | GGACUACAAUGGUUAUCAUTT against DNAH9 | inactive: 0.656
55 | GAUUCGUCUUUGUAAAGAATT against CR2 | inactive: 0.71
56 | GUACACGGCUCAUCGAGAATT against RARRES1 | inactive: -0.329
57 | CAGUUUAUGUGGUUCUUCUTT against DOLPP1 | inactive: 0.00977
58 | GCACUUAGUCGAACUACAATT against WDHD1 | inactive: -0.0501
59 | GCUUCGAACCUAAUGAACATT against SGTA | inactive: 0.819
60 | GAGACCAAGUUGGACCUCATT against SLC29A1 | inactive: 0.117
61 | UCAUCAAGUGGUUCCCUGATT against RHOF | inactive: 0.0711
62 | GCAUCAAGGAGACAUAUGATT against FMNL3 | inactive: 0.481
63 | GAAGAACUCGAGAAAAGUATT against MST4 | inactive: 0.343
64 | AAGAGUCAGUUUUCAGAUATT against CHID1 | inactive: 0.199
65 | CAGGGAACAUGUUUGAGAATT against FOXA3 | inactive: 0.128
66 | CAUUGAAACUGAUAAACCATT against ARCN1 | active: -1.25
67 | GCAAUUUUGCAGUAGUCAATT against DCLK2 | inactive: -0.552
68 | CUGUGAACUUUGUACUCCATT against NOX5 | inactive: 0.178

Source: PubChem BioAssay AID1347426 (Functional Genomics Laboratory (NCATS/FGL), 2020)
